These are yes or no findings as the source states them, for the method shown. Binding seen in cells or lysates may run through a third protein. Some results given as binding are weak or reduced against the parent protein; the word gives no strength. For some assays here: Tags and fused reporters may be left off the sequences shown. Each block holds one molecule with its values, some of them ahead of it.
Tests used:
[1] = biological target: T1, Flag-G3BP2 wild type (human) (UniProt Q9UN86); assay: co-IP; HEK293 cells co-transfected with Flag-G3BP2 constructs and HA-USP7; precipitated with anti-Flag, blotted for HA-USP7
T1 sequence: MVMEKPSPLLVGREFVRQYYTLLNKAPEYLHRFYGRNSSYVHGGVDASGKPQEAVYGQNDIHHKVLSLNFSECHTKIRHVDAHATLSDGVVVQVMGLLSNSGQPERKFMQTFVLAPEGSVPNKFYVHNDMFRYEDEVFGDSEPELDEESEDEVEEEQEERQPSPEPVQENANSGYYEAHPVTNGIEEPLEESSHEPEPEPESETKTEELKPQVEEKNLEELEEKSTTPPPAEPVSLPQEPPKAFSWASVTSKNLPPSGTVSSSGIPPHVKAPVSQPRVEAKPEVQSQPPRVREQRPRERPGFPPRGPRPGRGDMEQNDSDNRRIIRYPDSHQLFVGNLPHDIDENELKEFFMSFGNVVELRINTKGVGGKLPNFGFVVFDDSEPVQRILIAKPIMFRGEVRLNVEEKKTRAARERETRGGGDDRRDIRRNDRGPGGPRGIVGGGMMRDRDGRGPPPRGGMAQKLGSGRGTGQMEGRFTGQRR

By UniProt entry, the sequences of proteins in these tests, tags left out. Where a name states a change or a piece, a line headed by the entry shows the natural chain unless it says otherwise. Residues count along the entry.
UniProt Q93009: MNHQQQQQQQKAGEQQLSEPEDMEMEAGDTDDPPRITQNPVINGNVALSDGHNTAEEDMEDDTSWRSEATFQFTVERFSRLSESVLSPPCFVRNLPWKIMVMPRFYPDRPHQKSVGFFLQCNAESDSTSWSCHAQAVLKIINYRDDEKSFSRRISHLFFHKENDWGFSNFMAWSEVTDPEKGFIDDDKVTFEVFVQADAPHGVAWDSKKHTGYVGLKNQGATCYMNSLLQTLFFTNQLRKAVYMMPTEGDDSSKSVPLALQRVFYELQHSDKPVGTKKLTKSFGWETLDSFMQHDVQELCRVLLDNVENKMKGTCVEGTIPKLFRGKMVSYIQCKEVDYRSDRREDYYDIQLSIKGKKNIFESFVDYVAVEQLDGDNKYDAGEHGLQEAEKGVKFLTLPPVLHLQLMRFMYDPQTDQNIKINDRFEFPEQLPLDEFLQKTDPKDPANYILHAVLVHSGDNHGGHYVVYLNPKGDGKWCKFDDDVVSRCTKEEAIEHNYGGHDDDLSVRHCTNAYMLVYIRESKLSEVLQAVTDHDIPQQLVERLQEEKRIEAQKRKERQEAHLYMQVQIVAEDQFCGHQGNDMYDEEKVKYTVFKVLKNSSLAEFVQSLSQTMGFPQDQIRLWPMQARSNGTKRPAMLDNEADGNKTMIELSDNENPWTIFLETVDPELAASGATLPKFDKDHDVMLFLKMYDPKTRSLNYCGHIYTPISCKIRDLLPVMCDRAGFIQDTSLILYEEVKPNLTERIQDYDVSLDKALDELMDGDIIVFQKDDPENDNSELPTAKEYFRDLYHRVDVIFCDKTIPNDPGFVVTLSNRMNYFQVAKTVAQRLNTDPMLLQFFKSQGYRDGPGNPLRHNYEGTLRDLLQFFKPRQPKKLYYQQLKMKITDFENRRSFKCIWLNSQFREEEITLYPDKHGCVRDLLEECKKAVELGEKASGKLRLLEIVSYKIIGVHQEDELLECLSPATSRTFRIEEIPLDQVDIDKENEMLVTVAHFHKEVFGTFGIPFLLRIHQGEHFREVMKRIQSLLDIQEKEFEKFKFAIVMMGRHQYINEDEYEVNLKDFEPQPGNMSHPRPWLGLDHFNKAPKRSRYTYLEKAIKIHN
UniProt O14744: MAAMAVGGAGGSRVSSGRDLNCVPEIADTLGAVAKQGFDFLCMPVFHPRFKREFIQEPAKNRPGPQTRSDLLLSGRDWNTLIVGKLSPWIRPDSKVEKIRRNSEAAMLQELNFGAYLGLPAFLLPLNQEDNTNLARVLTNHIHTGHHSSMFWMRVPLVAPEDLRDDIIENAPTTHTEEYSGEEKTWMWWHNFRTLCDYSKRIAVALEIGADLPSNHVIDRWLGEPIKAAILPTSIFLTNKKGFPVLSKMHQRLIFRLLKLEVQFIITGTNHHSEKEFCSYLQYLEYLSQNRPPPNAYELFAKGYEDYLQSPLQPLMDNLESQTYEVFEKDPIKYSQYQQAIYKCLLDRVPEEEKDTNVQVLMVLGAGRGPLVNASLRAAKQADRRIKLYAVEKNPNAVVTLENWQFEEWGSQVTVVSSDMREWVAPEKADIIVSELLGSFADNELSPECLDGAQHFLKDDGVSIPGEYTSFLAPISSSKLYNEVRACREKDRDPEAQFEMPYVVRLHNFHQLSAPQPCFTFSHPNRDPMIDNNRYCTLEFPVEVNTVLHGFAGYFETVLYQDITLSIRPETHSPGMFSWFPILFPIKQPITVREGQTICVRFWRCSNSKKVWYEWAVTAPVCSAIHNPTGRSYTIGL
GST-PRMT5 421-637 (enzymatic activity region): residues 421-637 of O14744

[2] = biological target: T1, Flag-G3BP2 wild type (human); assay: co-IP; Tu212 cells (text: Tu686 and Tu212) transfected with Flag-PRMT5 or Flag-G3BP2; precipitated with anti-Flag
[3] = biological target: HA-USP7 (UniProt Q93009); assay: co-IP; HEK293 cells co-transfected with Flag-G3BP2 wild type or R468K, PRMT5 and HA-USP7, MG132 for 6 h; precipitated with anti-HA, blotted with anti-Flag
[4] = biological target: GST-PRMT5 421-637 (enzymatic activity region) (UniProt O14744); assay: pull-down; GST-PRMT5 full length or truncations on GST beads; Flag-G3BP2 from HEK293 cells blotted with anti-Flag; pull-down buffer 50 mM Tris-Cl pH 8.0, 200 mM NaCl, 10 mM MgCl2, 1% NP-40, 1 mM EDTA, 1 mM DTT, 2 h at 4 °C; only the target purified
[5] = biological target: GST-PRMT5 full length (UniProt O14744); assay: as above
[6] = biological target: PRMT5 in the HEK293 co-immunoprecipitation of Fig. 1B, C (not stated (endogenous in HEK293 or transfected)) (UniProt O14744); assay: co-IP; HEK293 cells; IgG as negative control
[7] = biological target: Flag-PRMT5 (UniProt O14744); assay: co-IP; Tu212 cells (text: Tu686 and Tu212) transfected with Flag-PRMT5 or Flag-G3BP2; precipitated with anti-Flag
[8] = biological target: Ubiquitin-Specific Peptidase 7 (USP7), endogenous (human (endogenous in Tu686)) (UniProt Q93009); assay: co-IP; Tu686 cells, negative control siRNA or PRMT5 siRNA, 40 μM MG132 for 6 h; precipitated with anti-USP7 or anti-G3BP2 antibody

- binding [1]: binds
Molecule: HA-USP7 (from UniProt Q93009 1-1102) (enzyme)

- binding [2]: binds
Molecule: PRMT5, endogenous (from UniProt O14744 1-637) (enzyme)

- binding [3]: binds
- binding [4]: binds
- binding [5]: binds
B1: Flag-G3BP2 wild type (protein, UniProt Q9UN86 1-482)
chain: MVMEKPSPLLVGREFVRQYYTLLNKAPEYLHRFYGRNSSYVHGGVDASGKPQEAVYGQNDIHHKVLSLNFSECHTKIRHVDAHATLSDGVVVQVMGLLSNSGQPERKFMQTFVLAPEGSVPNKFYVHNDMFRYEDEVFGDSEPELDEESEDEVEEEQEERQPSPEPVQENANSGYYEAHPVTNGIEEPLEESSHEPEPEPESETKTEELKPQVEEKNLEELEEKSTTPPPAEPVSLPQEPPKAFSWASVTSKNLPPSGTVSSSGIPPHVKAPVSQPRVEAKPEVQSQPPRVREQRPRERPGFPPRGPRPGRGDMEQNDSDNRRIIRYPDSHQLFVGNLPHDIDENELKEFFMSFGNVVELRINTKGVGGKLPNFGFVVFDDSEPVQRILIAKPIMFRGEVRLNVEEKKTRAARERETRGGGDDRRDIRRNDRGPGGPRGIVGGGMMRDRDGRGPPPRGGMAQKLGSGRGTGQMEGRFTGQRR

- binding [6]: binds
B2: G3BP2 in the HEK293 co-immunoprecipitation of Fig. 1B, C (protein, UniProt Q9UN86 1-482)
chain: MVMEKPSPLLVGREFVRQYYTLLNKAPEYLHRFYGRNSSYVHGGVDASGKPQEAVYGQNDIHHKVLSLNFSECHTKIRHVDAHATLSDGVVVQVMGLLSNSGQPERKFMQTFVLAPEGSVPNKFYVHNDMFRYEDEVFGDSEPELDEESEDEVEEEQEERQPSPEPVQENANSGYYEAHPVTNGIEEPLEESSHEPEPEPESETKTEELKPQVEEKNLEELEEKSTTPPPAEPVSLPQEPPKAFSWASVTSKNLPPSGTVSSSGIPPHVKAPVSQPRVEAKPEVQSQPPRVREQRPRERPGFPPRGPRPGRGDMEQNDSDNRRIIRYPDSHQLFVGNLPHDIDENELKEFFMSFGNVVELRINTKGVGGKLPNFGFVVFDDSEPVQRILIAKPIMFRGEVRLNVEEKKTRAARERETRGGGDDRRDIRRNDRGPGGPRGIVGGGMMRDRDGRGPPPRGGMAQKLGSGRGTGQMEGRFTGQRR

- binding [7]: binds
- binding [8]: binds
B3: GTPase-activating protein-binding protein 2 (G3BP2), endogenous (protein, UniProt Q9UN86 1-482)
chain: MVMEKPSPLLVGREFVRQYYTLLNKAPEYLHRFYGRNSSYVHGGVDASGKPQEAVYGQNDIHHKVLSLNFSECHTKIRHVDAHATLSDGVVVQVMGLLSNSGQPERKFMQTFVLAPEGSVPNKFYVHNDMFRYEDEVFGDSEPELDEESEDEVEEEQEERQPSPEPVQENANSGYYEAHPVTNGIEEPLEESSHEPEPEPESETKTEELKPQVEEKNLEELEEKSTTPPPAEPVSLPQEPPKAFSWASVTSKNLPPSGTVSSSGIPPHVKAPVSQPRVEAKPEVQSQPPRVREQRPRERPGFPPRGPRPGRGDMEQNDSDNRRIIRYPDSHQLFVGNLPHDIDENELKEFFMSFGNVVELRINTKGVGGKLPNFGFVVFDDSEPVQRILIAKPIMFRGEVRLNVEEKKTRAARERETRGGGDDRRDIRRNDRGPGGPRGIVGGGMMRDRDGRGPPPRGGMAQKLGSGRGTGQMEGRFTGQRR
